Measured values published in PubChem BioAssay AID504648 (National Center for Advancing Translational Sciences (NCATS), 2011).
The campaign covered roughly 390,000 compounds. About 610 (0.16%) were called active. Inconclusive means that the source gave no clear call. Such entries were picked first, then a sample of the others. The call rests on the fitted dose curve; in most records, active means well fitted inhibition curve with a large enough effect; inconclusive means small, poorly fitted or top-dose-only effect, or effect the other way, or another doubt; inactive means no such curve, though single readings can be large or run the other way. Potencies beside an inconclusive call are fits to weak or partial responses and may not hold up.

assay: Nrf2 qHTS screen for inhibitors: counterscreen for cytotoxicity; conditions: A549 ARE-Fluc cells, CellTiter-Fluor viability, 18-24 h; activity change, negative = cytotoxicity: at 46 µM (top of the series)
Method in brief: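 A549 ARE-Fluc cells in 5% FBS OPTI-MEM, 5000 cells/well, rested 2 h then exposed to compounds in concentration-response for 18-24 h at 37 °C. Viability by CellTiter-Fluor fluorescence (Ex 405/Em 525) after 30 min; luciferase luminescence (BugLite, 15 min, RT) read afterwards.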
On the % scale 0 is the no-effect control and ±100 the full control effect; potency means the concentration at half of the fitted maximal effect.

Compound | activity change, negative = cytotoxicity | Potency
CN(C=O)c1ccc(CSc2ccccc2)cc1 | inactive: 1.27% | –
CC(=O)Nc1ccc2c3c(cccc13)C(=O)N(c1ccccc1)C2=O | – | inconclusive: 18.4 µM [activator, partial curve]
COc1ccc(-n2c(=O)c3c4c(sc3n(Cc3ccc(C)cc3C)c2=O)CCC4)c(OC)c1 | – | inconclusive: 23.1 µM [falling, single point]
Cn1cc(/C=C/c2cc[n+](C)cc2)c2cc(Cl)ccc21 | – | inconclusive: 13 µM [falling, partial curve]
Cc1ccc(S(=O)(=O)Nc2ccc(NC(=O)Nc3cccc(C(F)(F)F)c3)cc2)cc1 | – | inconclusive: 29.1 µM [falling, single point]
CCc1c(C)nc2nncn2c1Nc1ccc(Cl)cc1 | inactive: 0.525% | –
CC1=CC(=C2C(=O)c3ccccc3C2=O)C=C(C)O1 | – | inconclusive: 23.1 µM [falling, single point]
COc1ccc2c(c1)C1CC(C)(NC(=O)C1S(=O)(=O)c1ccc(F)cc1)O2 (stereo not given) | – | inconclusive: 0.0411 µM [activator, full curve, poor fit]
O=[N+]([O-])c1ccc(NS(=O)(=O)c2ccccc2)c(Cl)c1 | – | inconclusive: 29.1 µM [falling, single point]
Cn1c(CN2CCCCC2)nc2cc(NS(=O)(=O)c3ccc(Cl)cc3)ccc21 | – | inconclusive: 29.1 µM [falling, single point]
CC(Oc1ccc(F)cc1)C(=O)Nc1cc(S(=O)(=O)N2CCOCC2)ccc1N1CCCCC1 (stereo not given) | – | inconclusive: 29.1 µM [falling, partial curve, poor fit]
CCN1CCc2nc3ccccc3c(C(=O)Nc3ccc(C#N)cc3)c2C1 | – | inconclusive: 3.26 µM [activator, full curve, poor fit]
COC(=O)c1c(SC)nc2ccccc2c1OCc1ccccc1Cl | – | inconclusive: 16.4 µM [activator, partial curve, poor fit]
COc1ccc2nc(Sc3c([N+](=O)[O-])nc(C)n3Cc3ccccc3)[nH]c2c1 | – | inconclusive: 25.9 µM [falling, partial curve]
COC(=O)c1ccc(CN(Cc2ccc(OC)c(OC)c2)S(=O)(=O)c2ccc(F)c(C(=O)Nc3cc(C)ccc3C)c2)cc1 | inactive: 3.6% | –
O=C(NN=C1C2CC3CC(C2)CC1C3)c1cccs1 | – | inconclusive: 29.1 µM [activator, partial curve, poor fit]
CN(/N=C/c1ccc([N+](=O)[O-])o1)c1ccccc1 | – | inconclusive: 23.1 µM [falling, partial curve, poor fit]
Clc1cccc(OCCN2CCCC2)c1 | inactive: 6.09% | –
Cc1cc(C)cc(NC(=O)CNC(c2ccccc2)c2ccccc2)c1 | – | inconclusive: 16.4 µM [falling, single point]
CCCOc1ccccc1C(=O)Nc1ccc(-c2nc3ccc(C)cc3s2)cc1 | inactive: -2.34% | –
CCN(Cc1ccccc1)Cc1c(O)ccc2c(=O)c(-c3ccccc3Cl)coc12 | inactive: 2.73% | –
CCN(Cc1ccccc1)C1CCN(Cc2ccc(SC)cc2)CC1 | – | inconclusive: 4.61 µM [falling, partial curve, poor fit]

Compound | activity change, negative = cytotoxicity | Potency
CCCOc1ccccc1C1CC(=O)NC2=C1C(=O)CCC2 (stereo not given) | – | inconclusive: 5.8 µM [falling, partial curve]
Cc1nn(CCc2nn[nH]n2)c2nc(-c3ccc(C4CCCCC4)cc3)cc(C(F)(F)F)c12 | – | inconclusive: 32.6 µM [falling, partial curve, poor fit]
CC1CC(C)C(=O)C(C(CC2CC(=O)NC(=O)C2)OC(=O)CC(=O)c2ccccc2)C1 (stereo not given) | – | inconclusive: 1.84 µM [falling, full curve]
COc1ccc(OCc2n(CC(=O)OC3CC(C)CCC3C(C)C)c3ccccc3[n+]2C)cc1 (stereo not given) | – | inconclusive: 29.1 µM [falling, single point]
CCc1ccc2[nH]c(=O)c(CN(Cc3ccccc3)Cc3nnnn3Cc3ccccc3)cc2c1 | – | inconclusive: 16.4 µM [falling, single point]
Cc1cc2ccccc2nc1-c1ccccc1F | – | inconclusive: 23.1 µM [activator, partial curve, poor fit]
CCn1ncc(Br)c1C(=O)Nc1ccccc1C(F)(F)F | inactive: 0% | –
C/C(=N\NC(=O)C1CC1c1ccccc1)c1cccc([N+](=O)[O-])c1 (stereo not given) | – | inconclusive: 20.6 µM [falling, single point]
CC(C)(C)c1ccc(C(=O)N2CCC(NC(=O)c3ccccc3)CC2)cc1 | inactive: -0.357% | –
O=C(Nc1ccc[n+](CC(=O)c2cccc3ccccc23)c1)c1ccccc1 | – | inconclusive: 18.4 µM [falling, single point]
Cc1cc2c(cc1S(=O)(=O)N1CCC(C(N)=O)CC1)OCC(=O)N2 | inactive: -2.22% | –
CN1CCN(C(=O)CCN2C(=O)/C(=C\c3ccc(F)cc3)SC2=S)CC1 | – | inconclusive: 18.4 µM [falling, partial curve, poor fit]
O=C(c1cc(F)ccc1F)C1CCCN(C(=O)c2ccc(F)cc2Cl)C1 (stereo not given) | inactive: 4.2% | –
Cc1nc2ccccc2c2oc(C(=O)NCCCN3CCC(C)CC3)cc12 | – | inconclusive: 16.4 µM [falling, single point]
COc1ccccc1CNc1cc(C)ccc1C | – | inconclusive: 16.4 µM [activator, partial curve, poor fit]
COc1ccc(N=C(c2ccccc2)c2c(C)[nH]n(-c3ccccc3)c2=O)c(OC)c1 | – | inconclusive: 18.4 µM [falling, partial curve]
COC(=O)C1=C(C)NC(=O)/C1=C\N(C)C | inactive: 0.243% | –
CCOc1ccc(NC(=O)CSc2nc(=O)n(CCN3CCOCC3)c3c2CCCC3)cc1 | inactive: -0.893% | –
O=C(Nc1cccc(S(=O)(=O)Nc2ccc(Cl)cc2)c1)c1ccccn1 | – | inconclusive: 20.6 µM [falling, partial curve, poor fit]
COC(=O)c1ccc(Cl)c(NS(=O)(=O)c2ccc3c(c2)OCCO3)c1 | – | inconclusive: 25.9 µM [falling, partial curve, poor fit]
Cc1ccc(C)c(OCC(O)CN2CCN(CCN3C(=O)c4cccc5cccc(c45)C3=O)CC2)c1 (stereo not given) | – | inconclusive: 29.1 µM [falling, single point]
Cc1cccc(C(=O)Nc2sc3c(c2C(=O)O)CCC3)c1 | – | inconclusive: 20.6 µM [falling, single point]

Compound | activity change, negative = cytotoxicity | Potency
C[C@@H](NC(=O)c1nc[nH]c1C(=O)N[C@@H](CCCCNC(=O)OC(C)(C)C)C(=O)OC(C)(C)C)c1ccccc1 | – | inconclusive: 32.6 µM [falling, single point]
COc1cc(-c2csc(N3CCOCC3)n2)cc(OC)c1OC | inactive: -3.59% | –
CCc1cc2c(=O)c(-c3ccc4c(c3)OCCO4)c(C)oc2cc1OS(C)(=O)=O | – | inconclusive: 25.9 µM [falling, partial curve, poor fit]
C=CCNC(=O)CC1Nc2c3ccccc3nc(=S)n2C1=O (stereo not given) | inactive: 1.38% | –
C=CCn1c(CSCc2ccc(Cl)cc2)nnc1SCC(=O)NCc1ccccc1 | inactive: 0.846% | –
COc1cc(S(=O)(=O)NCc2ccccc2Cl)ccc1-n1cnnn1 | inactive: 2.97% | –
CN1/C(=C\C(=S)Nc2ccccc2)C(C)(C)c2ccccc21 | – | inconclusive: 25.9 µM [falling, partial curve, poor fit]
CC(C)(C)N1CC(c2nc3ccccc3n2Cc2ccc(Cl)cc2)CC1=O (stereo not given) | inactive: -4.05% | –
COc1cc2nc(N3CCN(C(=O)OCc4ccccc4)[C@H](C(=O)NC(C)(C)C)C3)nc(N)c2cc1OC | – | inconclusive: 23.1 µM [falling, partial curve, poor fit]
CSc1nc(C2CC2)cc(-c2cccs2)c1C#N | – | inconclusive: 20.6 µM [falling, single point]
O=C1CN(C(=O)c2ccc(S(=O)(=O)N3CCCCC3)cc2)C(c2ccc(F)cc2)c2cc(Br)ccc2N1 (stereo not given) | inactive: -12.7% | –
C=C1CC(COc2ccc3c(C)c(Cl)c(=O)oc3c2)(c2ccccc2)OC1=O (stereo not given) | – | inconclusive: 18.4 µM [falling, single point]
Fc1ccc(-c2csc(Nc3ccccn3)n2)c(F)c1 | – | inconclusive: 11.6 µM [falling, partial curve, poor fit]
CCCCCCc1cc2cc(S(=O)(=O)c3ccc(F)c(Cl)c3)c(=O)oc2cc1O | – | inconclusive: 29.1 µM [falling, single point]
Oc1c(C(Nc2nc3ccccc3s2)c2ccco2)ccc2cccnc12 (stereo not given) | – | inconclusive: 18.4 µM [falling, partial curve, poor fit]
O=C(Nc1ccccc1-c1nc2ccccc2[nH]1)c1ccc(S(=O)(=O)N2CCCCC2)cc1 | – | inconclusive: 29.1 µM [falling, single point]
Cc1cccc(C)c1OCCNC(=O)c1ccc2ccccc2n1 | – | inconclusive: 29.1 µM [activator, single point]
CC(=O)N=c1c(C#N)cc2c(=O)n3cccc(C)c3nc2n1CCCOC(C)C | – | inconclusive: 16.4 µM [activator, single point]
O=C(NCCN1CCN(C(=O)c2ccc([N+](=O)[O-])cc2)CC1)C(=O)Nc1ccc(F)cc1 | – | inconclusive: 23.1 µM [activator, partial curve, poor fit]
COc1ccc(CC(=O)Nc2nc(C(C)(C)C)cs2)cc1 | – | inconclusive: 10.3 µM [falling, partial curve, poor fit]
Cc1ccccc1OC1CCN(C(=O)C2CCC(=O)N(C3CCCC3)C2)CC1 (stereo not given) | – | inconclusive: 29.1 µM [falling, single point]

Some of the entries so far, field by field.
CCc1cc2c(=O)c(-c3ccc4c(c3)OCCO4)c(C)oc2cc1OS(C)(=O)=O
  Potency: inconclusive: 25.9 µM [falling, partial curve, poor fit]
CN1/C(=C\C(=S)Nc2ccccc2)C(C)(C)c2ccccc21
  Potency: inconclusive: 25.9 µM [falling, partial curve, poor fit]
O=C(NCCN1CCN(C(=O)c2ccc([N+](=O)[O-])cc2)CC1)C(=O)Nc1ccc(F)cc1
  Potency: inconclusive: 23.1 µM [activator, partial curve, poor fit]
